# Measurements reported in the supplement of paper PMC10727501.
# Some of the results follow. This data set is noisy: repeats of one test often differ as much as different tests do.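 Free-swimming zebrafish larvae were assessed for O-bend response probability to dark flashes (naive: first five; training: remaining flashes across four 60-flash blocks; test: later 60-flash block) and for OMR turning toward alternating leftward/rightward LED motion. Six treated larvae were compared against sixty 0.1% DMSO controls; hits required |SSMD|≥2.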
# System: Danio rerio larvae (5 dpf, TLF)
# Test: Prob-Naive (SSMD vs DMSO vehicle); higher = higher than vehicle (e.g. higher dark-flash O-bend response probability, or better optomotor performance)
# Conditions: 10 µM; pre-incubation: 30-90 min
row,SMILES,Prob-Naive
1,CC(C)(Sc1cc(C(C)(C)C)c(O)c(C(C)(C)C)c1)Sc1cc(C(C)(C)C)c(O)c(C(C)(C)C)c1 [Probucol],0.285
2,NS(=O)(=O)C#Cc1ccccc1 [Pifithrin-Î¼],-0.528
3,Cc1cc(Cl)ccc1OCCCC(=O)NO [Droxinostat],-0.0813
4,CS(=O)(=O)CCNCc1ccc(-c2ccc3ncnc(Nc4ccc(OCc5cccc(F)c5)c(Cl)c4)c3c2)o1 [Lapatinib],-0.192
5,O=C(Nc1c(Cl)cncc1Cl)c1ccc(OC(F)F)c(OCC2CC2)c1 [Roflumilast],-0.326
6,C#C[C@@]1(O)CC[C@H]2[C@@H]3CCC4=CC(=O)CC[C@@H]4[C@@H]3CC[C@@]21CC [Levonorgestrel],-0.775
7,COc1cc2c(cc1OC)-c1cc3ccc(OC)c(OC)c3c[n+]1CC2.[Cl-] [Palmatine chloride],0.208
8,CC1(C)[C@@H](O[C@H]2O[C@H](C(=O)O)[C@@H](O)[C@H](O)[C@@H]2O[C@@H]2O[C@H](C(=O)O)[C@@H](O)[C@H](O)[C@@H]2O)CC[C@@]2(C)[C@H]1CC[C@]1(C)[C@H]2C(=O)C=C2[C@H]3C[C@@](C)(C(=O)O)CC[C@]3(C)CC[C@]21C [Glycyrrhizic Acid],-0.0681
9,CN1CCc2c(c3ccccc3n2Cc2ccc(C(=O)NO)cc2)C1.Cl [Tubastatin A HCl],0.446
10,CN(C)CCOc1ccc(-c2nc(-c3ccncc3)c(-c3ccc4c(c3)CC/C4=N/O)[nH]2)cc1,-0.169
11,CC(=O)OCC(CCn1cnc2cnc(N)nc21)COC(C)=O [Famciclovir],0.208
12,CCc1cncnc1N1CCN(Cc2nc3cc(C(F)(F)F)ccc3[nH]2)CC1,0.564
13,CO[C@H]1/C=C/O[C@@]2(C)Oc3c(C)c(O)c4c(O)c(c(/C=N/N5CCN(C)CC5)c(O)c4c3C2=O)NC(=O)/C(C)=C/C=C/[C@H](C)[C@H](O)[C@@H](C)[C@@H](O)[C@@H](C)[C@H](OC(C)=O)[C@@H]1C [Rifampin],0.255
14,CC(C)c1ccc(NC(=O)Cn2cnc3c2c(=O)n(C)c(=O)n3C)cc1,0.232
15,CCS(=O)(=O)Nc1ccc2c(c1)/C(=C(/Nc1ccc(CN3CCCCC3)cc1)c1ccccc1)C(=O)N2 [Hesperadin],0.313
16,Cc1ccccc1C(=O)Nc1ccc(C(=O)N2CCCC(N(C)C)c3ccccc32)cc1 (stereo not given) [Mozavaptan],-0.528
17,CC(C)C[C@H](NC(=O)[C@H](CCc1ccccc1)NC(=O)CN1CCOCC1)C(=O)N[C@@H](Cc1ccccc1)C(=O)N[C@@H](CC(C)C)C(=O)[C@@]1(C)CO1 [Carfilzomib (PR-171)],0.0343
18,O=c1[nH]c(=O)n([C@H]2C[C@H](O)[C@@H](CO)O2)cc1C(F)(F)F [Trifluridine],0.493
19,COc1ccc([C@H]2CNC(=O)C2)cc1OC1CCCC1 [S- (+)-Rolipram],-0.533
20,CCCCCCCCCCOc1cc2c(O)c(C(=O)OCC)cnc2cc1OCC [Decoquinate],0.153

# Three of the compounds above, with tabs:
row	SMILES	Prob-Naive
15	CCS(=O)(=O)Nc1ccc2c(c1)/C(=C(/Nc1ccc(CN3CCCCC3)cc1)c1ccccc1)C(=O)N2 [Hesperadin]	0.313
16	Cc1ccccc1C(=O)Nc1ccc(C(=O)N2CCCC(N(C)C)c3ccccc32)cc1 (stereo not given) [Mozavaptan]	-0.528
17	CC(C)C[C@H](NC(=O)[C@H](CCc1ccccc1)NC(=O)CN1CCOCC1)C(=O)N[C@@H](Cc1ccccc1)C(=O)N[C@@H](CC(C)C)C(=O)[C@@]1(C)CO1 [Carfilzomib (PR-171)]	0.0343

# The list continues:

row,SMILES,Prob-Naive
1,O=C(/C=C/c1ccc(O)c(O)c1)O[C@@H]1C[C@@](O)(C(=O)O)C[C@@H](O)[C@H]1O [Chlorogenic Acid],-0.602
2,Cc1cc(C)nc(NS(=O)(=O)c2ccc(N)cc2)n1 [Sulfamethazine],0
3,O=C(O)c1cc2cccc([N+](=O)[O-])c2[nH]1,-0.294
4,Cc1cccc(-c2[nH]c(C(C)(C)C)nc2-c2ccc3c(c2)OCO3)n1,-0.258
5,CCN(CCO)CCCOc1ccc2c(Nc3cc(CC(=O)Nc4cccc(F)c4)n[nH]3)ncnc2c1 [Barasertib (AZD1152-HQPA)],-0.0643
6,CCOC(=O)C1=C[C@@]2(CC)CCCN3CCc4c(n1c1ccccc41)[C@@H]32 [Vinpocetine (Cavinton)],-0.0405
7,COc1c2ccoc2cc2oc(=O)ccc12 [Bergapten],-0.419
8,NCCCC(O)(P(=O)(O)O)P(=O)(O)O.O.O.O.[Na] [Alendronate (Fosamax)],-0.833
9,COc1ccc2ccc(=O)oc2c1CC=C(C)C [Osthole],-4.28
10,CCN[C@@H]1C[C@@H](N)[C@@H](O[C@H]2OC(CN)=CC[C@@H]2N)[C@H](O)[C@H]1OC1OC[C@](C)(O)[C@H](NC)[C@@H]1O.CCN[C@@H]1C[C@@H](N)[C@@H](O[C@H]2OC(CN)=CC[C@@H]2N)[C@H](O)[C@H]1OC1OC[C@](C)(O)[C@H](NC)[C@@H]1O.O=S(=O)(O)O.O=S(=O)(O)O.O=S(=O)(O)O.O=S(=O)(O)O.O=S(=O)(O)O (stereo not given in full) [Netilmicin Sulfate],-0.139
11,CC(C)c1cc(C(C)C)c(CC(=O)NS(=O)(=O)Oc2c(C(C)C)cccc2C(C)C)c(C(C)C)c1 [Avasimibe],-0.252
12,COC(=O)[C@H]1[C@H]2C[C@@H]3c4[nH]c5cc(OC)ccc5c4CCN3C[C@H]2C[C@@H](OC(=O)c2cc(OC)c(OC)c(OC)c2)[C@@H]1OC [Reserpine],-0.134
13,CN1CCC[C@@H]1CCO[C@](C)(c1ccccc1)c1ccc(Cl)cc1.O=C(O)/C=C/C(=O)O [Clemastine Fumarate],0.759
14,CCN(CC)CCCC(C)Nc1c2ccc(Cl)cc2nc2ccc(OC)cc12.Cl.Cl (stereo not given) [Quinacrine 2HCl],-0.233
15,CC[C@H](NC(=O)[C@H](C)NC)C(=O)N1C[C@@H](O)C[C@H]1Cc1c(-c2[nH]c3cc(F)ccc3c2C[C@@H]2C[C@H](O)CN2C(=O)[C@H](CC)NC(=O)[C@H](C)NC)[nH]c2cc(F)ccc12 [Birinapant],0.489
16,COc1cc(F)c(C(C)C)cc1-c1ccc(C(F)(F)F)cc1CN1C(=O)O[C@H](c2cc(C(F)(F)F)cc(C(F)(F)F)c2)[C@H]1C [Anacetrapib (MK-0859)],0.302
17,C=C1CC[C@H](O)C/C1=C\C=C1/CCC[C@@]2(C)[C@H]1CC[C@H]2[C@H](C)CCCC(C)(C)O [Calcifediol],-0.483
18,O=C(c1cncc(Br)c1)N1CCC(N2CCCC2)CC1,-0.22
19,CC(C)(C)NC[C@H](O)COc1nsnc1N1CCOCC1.O=C(O)/C=C/C(=O)O [Timolol Maleate],-0.52
20,CCN[C@H]1CN(CCCOC)S(=O)(=O)c2sc(S(N)(=O)=O)cc21 [Brinzolamide],0.302
